This note sets out measurements from publication PMC6064111.

Amino acid sequences for entries named in this document (tags omitted). Residues count along the entry.
UniProt P02543: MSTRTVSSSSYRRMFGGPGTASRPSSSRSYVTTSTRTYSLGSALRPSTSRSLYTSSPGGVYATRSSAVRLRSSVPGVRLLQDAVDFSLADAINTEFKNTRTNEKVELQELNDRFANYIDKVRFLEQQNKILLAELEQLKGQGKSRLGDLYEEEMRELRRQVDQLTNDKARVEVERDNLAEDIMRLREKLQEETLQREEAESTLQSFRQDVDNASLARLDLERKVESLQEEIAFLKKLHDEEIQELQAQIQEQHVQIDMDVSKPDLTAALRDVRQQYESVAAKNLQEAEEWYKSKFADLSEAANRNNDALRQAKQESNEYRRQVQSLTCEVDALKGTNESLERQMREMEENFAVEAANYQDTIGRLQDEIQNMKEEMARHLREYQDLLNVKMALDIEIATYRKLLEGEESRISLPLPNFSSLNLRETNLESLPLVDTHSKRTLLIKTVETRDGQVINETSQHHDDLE
ANXA2-Flag (1–259 aa) (P19620, residues 1-259): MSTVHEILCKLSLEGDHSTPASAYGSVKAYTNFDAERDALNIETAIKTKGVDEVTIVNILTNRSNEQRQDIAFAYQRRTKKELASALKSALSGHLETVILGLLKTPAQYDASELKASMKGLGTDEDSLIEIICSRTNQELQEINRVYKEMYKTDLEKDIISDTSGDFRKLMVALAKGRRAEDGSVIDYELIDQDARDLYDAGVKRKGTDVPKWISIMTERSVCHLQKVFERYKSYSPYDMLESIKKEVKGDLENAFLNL
ANXA2-Flag (1–174 aa) (P19620, residues 1-174): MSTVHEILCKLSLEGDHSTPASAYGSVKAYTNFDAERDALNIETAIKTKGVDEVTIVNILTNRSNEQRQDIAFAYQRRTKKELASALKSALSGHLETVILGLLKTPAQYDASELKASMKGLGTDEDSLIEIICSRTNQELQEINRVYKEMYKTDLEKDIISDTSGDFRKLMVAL
ANXA2-Flag (1–102 aa) (P19620, residues 1-102): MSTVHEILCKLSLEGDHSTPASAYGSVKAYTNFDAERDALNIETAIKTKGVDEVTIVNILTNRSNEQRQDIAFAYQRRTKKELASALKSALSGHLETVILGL

Results are given in words; binding and its absence hold for the method and conditions named. Binding seen in cells or lysates may run through a third protein. Some binding calls cover weakened binding; strength is not graded here.

The test concerns the target vimentin-HA (full-length vimentin, HA-tagged) (UniProt P02543). Kind of test: co-IP; 293T cells co-transfected with pVIM-HA and pANXA2-Flag or ANXA2 truncation plasmids (8 μg each), lysed at 48 h in 1% Triton X-100; anti-HA or anti-Flag affinity gel 2 h at 4 °C; Western blot for Flag or HA. Background: In western blotting, separated proteins are transferred to a membrane and probed.
With “ANXA2-Flag (1–102 aa) (from UniProt P19620 1-102) (domain or fragment)”, the binding entry was “no binding”.
Take “ANXA2-Flag (1–174 aa) (from UniProt P19620 1-174) (domain or fragment)”: the binding entry is given as “binds”.
For “ANXA2-Flag (1–259 aa) (from UniProt P19620 1-259) (domain or fragment)”, the binding entry was “binds”.
